Experimental data published in the supplement of paper PMC10849652.
The list shows a part of the results.

Chains of the proteins cited; added tags and fusions are not shown. Lines headed by an entry give the natural chain unless they say otherwise; changes in a name come on top.
UniProt Q6NVV7: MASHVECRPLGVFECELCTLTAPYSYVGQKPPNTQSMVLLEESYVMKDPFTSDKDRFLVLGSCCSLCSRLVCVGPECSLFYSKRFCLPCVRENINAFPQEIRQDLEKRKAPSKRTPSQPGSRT
UniProt A8MT69: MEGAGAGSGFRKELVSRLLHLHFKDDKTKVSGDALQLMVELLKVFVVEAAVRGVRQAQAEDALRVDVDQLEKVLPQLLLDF
UniProt Q8IYX8: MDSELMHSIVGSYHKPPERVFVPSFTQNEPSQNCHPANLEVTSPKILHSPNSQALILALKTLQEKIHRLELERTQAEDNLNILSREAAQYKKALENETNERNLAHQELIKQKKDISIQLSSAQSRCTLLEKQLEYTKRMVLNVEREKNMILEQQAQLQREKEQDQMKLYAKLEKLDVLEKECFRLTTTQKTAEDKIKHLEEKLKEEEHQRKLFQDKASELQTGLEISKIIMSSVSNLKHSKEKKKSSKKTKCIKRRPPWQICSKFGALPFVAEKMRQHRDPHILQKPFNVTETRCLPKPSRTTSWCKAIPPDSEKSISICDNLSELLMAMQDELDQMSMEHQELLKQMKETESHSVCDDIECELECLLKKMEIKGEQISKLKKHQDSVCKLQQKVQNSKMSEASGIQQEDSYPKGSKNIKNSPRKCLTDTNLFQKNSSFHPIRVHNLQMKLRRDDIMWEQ
UniProt P07199: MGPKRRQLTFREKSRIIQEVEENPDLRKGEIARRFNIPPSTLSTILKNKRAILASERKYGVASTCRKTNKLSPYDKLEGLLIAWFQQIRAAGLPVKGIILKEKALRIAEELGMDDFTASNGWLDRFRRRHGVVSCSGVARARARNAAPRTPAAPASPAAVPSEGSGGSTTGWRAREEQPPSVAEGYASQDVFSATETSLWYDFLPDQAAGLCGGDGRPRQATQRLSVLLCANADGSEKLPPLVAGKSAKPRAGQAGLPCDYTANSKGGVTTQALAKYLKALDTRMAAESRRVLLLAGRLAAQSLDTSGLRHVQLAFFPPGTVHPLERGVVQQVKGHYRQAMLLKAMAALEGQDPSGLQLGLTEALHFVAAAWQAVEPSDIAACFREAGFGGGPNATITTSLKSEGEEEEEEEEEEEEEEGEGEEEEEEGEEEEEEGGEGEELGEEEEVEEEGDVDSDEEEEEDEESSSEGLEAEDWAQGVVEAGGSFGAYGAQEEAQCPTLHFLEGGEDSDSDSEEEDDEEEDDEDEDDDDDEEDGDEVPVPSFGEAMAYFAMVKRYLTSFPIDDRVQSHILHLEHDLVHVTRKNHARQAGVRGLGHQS
UniProt P53567: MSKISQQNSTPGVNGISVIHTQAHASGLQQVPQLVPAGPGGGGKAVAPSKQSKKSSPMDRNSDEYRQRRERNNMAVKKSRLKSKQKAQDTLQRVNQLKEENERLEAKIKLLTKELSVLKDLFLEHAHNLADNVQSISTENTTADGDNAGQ
UniProt Q6DT37: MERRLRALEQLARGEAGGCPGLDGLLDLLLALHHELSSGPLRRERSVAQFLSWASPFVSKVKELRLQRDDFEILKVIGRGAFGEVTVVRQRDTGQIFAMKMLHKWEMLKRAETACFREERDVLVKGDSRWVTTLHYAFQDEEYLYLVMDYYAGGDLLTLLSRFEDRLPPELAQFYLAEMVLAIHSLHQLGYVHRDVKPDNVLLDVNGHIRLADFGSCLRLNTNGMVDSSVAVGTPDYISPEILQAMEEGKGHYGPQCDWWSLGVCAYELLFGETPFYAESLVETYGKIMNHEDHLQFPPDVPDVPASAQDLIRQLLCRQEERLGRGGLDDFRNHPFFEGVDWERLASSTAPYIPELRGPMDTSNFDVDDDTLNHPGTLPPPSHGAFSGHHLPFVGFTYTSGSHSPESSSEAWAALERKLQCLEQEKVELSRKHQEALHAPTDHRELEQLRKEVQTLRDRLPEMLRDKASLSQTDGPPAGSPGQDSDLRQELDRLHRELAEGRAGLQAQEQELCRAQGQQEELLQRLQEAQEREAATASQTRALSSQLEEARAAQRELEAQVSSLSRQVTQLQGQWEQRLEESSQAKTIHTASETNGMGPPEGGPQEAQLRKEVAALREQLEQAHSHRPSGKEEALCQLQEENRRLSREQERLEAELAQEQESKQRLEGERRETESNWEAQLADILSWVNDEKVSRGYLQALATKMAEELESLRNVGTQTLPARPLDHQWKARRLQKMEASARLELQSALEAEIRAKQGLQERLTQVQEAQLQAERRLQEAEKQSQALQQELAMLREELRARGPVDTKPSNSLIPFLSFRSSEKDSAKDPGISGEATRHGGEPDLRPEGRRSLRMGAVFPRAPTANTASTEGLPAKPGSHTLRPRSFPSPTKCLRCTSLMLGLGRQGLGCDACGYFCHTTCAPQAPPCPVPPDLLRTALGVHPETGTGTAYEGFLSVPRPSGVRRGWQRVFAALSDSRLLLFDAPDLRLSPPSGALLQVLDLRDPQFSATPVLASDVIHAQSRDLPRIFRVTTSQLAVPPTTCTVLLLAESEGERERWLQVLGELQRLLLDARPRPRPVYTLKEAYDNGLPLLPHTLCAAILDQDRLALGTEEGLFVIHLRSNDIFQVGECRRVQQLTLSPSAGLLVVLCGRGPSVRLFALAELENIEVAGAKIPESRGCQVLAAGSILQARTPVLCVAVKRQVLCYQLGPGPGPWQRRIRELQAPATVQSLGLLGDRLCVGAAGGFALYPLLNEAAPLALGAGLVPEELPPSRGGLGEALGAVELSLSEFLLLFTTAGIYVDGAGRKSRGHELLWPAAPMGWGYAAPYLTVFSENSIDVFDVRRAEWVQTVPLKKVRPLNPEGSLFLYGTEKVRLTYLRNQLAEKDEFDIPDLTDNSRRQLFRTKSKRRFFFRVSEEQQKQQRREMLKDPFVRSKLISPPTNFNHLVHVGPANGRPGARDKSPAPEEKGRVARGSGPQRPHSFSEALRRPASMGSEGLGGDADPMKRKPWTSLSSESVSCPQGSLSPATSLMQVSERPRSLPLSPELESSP
UniProt Q16667, whole entry, looked up: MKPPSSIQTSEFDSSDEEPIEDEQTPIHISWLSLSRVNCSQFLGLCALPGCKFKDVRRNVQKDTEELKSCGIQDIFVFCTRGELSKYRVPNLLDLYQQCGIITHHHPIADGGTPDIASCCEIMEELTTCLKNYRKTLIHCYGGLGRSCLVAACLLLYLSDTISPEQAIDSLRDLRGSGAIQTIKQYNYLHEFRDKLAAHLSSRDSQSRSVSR
UniProt Q9NRR8: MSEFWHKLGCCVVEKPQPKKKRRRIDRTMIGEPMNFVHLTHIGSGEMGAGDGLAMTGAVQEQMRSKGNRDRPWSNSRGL
UniProt Q9NSP4: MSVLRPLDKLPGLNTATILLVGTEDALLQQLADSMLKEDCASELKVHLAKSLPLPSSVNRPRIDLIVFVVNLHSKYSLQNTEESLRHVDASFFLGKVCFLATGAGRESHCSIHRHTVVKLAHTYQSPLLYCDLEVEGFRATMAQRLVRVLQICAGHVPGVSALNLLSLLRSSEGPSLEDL
UniProt Q96MT8: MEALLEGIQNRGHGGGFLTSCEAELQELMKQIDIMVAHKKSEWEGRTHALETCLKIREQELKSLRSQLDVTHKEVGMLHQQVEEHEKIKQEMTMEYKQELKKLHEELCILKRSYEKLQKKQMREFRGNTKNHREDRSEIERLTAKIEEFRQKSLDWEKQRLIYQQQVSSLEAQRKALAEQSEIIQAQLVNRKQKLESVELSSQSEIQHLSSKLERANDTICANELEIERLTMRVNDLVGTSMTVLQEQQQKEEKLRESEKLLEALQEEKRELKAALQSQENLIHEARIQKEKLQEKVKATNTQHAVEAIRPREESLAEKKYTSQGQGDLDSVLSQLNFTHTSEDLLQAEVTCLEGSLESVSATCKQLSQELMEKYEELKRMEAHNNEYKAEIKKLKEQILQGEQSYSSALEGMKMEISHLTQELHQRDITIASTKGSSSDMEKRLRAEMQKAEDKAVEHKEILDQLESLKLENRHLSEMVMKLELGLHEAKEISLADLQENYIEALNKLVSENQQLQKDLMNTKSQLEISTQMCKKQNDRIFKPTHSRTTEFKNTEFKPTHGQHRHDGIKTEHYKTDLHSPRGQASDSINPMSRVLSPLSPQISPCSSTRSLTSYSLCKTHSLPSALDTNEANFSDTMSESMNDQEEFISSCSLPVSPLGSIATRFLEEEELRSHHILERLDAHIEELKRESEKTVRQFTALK
UniProt Q5JTW2: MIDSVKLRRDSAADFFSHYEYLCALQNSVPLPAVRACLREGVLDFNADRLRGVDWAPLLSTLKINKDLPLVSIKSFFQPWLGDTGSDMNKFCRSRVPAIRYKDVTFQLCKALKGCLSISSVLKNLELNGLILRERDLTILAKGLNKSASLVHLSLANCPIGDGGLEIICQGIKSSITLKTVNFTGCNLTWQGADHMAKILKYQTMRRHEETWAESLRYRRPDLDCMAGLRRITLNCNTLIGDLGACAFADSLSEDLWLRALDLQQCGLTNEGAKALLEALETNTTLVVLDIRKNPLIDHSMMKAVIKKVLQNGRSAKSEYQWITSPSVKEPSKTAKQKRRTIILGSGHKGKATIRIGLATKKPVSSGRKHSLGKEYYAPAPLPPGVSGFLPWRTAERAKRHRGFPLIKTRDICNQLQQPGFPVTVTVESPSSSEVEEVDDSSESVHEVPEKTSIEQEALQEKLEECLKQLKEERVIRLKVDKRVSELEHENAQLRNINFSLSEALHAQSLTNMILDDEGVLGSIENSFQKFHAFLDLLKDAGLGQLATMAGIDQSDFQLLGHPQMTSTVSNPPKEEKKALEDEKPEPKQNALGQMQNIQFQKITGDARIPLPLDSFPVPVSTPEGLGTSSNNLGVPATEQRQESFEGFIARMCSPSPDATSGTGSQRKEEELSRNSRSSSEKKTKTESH
UniProt Q9UPV0, whole entry, looked up: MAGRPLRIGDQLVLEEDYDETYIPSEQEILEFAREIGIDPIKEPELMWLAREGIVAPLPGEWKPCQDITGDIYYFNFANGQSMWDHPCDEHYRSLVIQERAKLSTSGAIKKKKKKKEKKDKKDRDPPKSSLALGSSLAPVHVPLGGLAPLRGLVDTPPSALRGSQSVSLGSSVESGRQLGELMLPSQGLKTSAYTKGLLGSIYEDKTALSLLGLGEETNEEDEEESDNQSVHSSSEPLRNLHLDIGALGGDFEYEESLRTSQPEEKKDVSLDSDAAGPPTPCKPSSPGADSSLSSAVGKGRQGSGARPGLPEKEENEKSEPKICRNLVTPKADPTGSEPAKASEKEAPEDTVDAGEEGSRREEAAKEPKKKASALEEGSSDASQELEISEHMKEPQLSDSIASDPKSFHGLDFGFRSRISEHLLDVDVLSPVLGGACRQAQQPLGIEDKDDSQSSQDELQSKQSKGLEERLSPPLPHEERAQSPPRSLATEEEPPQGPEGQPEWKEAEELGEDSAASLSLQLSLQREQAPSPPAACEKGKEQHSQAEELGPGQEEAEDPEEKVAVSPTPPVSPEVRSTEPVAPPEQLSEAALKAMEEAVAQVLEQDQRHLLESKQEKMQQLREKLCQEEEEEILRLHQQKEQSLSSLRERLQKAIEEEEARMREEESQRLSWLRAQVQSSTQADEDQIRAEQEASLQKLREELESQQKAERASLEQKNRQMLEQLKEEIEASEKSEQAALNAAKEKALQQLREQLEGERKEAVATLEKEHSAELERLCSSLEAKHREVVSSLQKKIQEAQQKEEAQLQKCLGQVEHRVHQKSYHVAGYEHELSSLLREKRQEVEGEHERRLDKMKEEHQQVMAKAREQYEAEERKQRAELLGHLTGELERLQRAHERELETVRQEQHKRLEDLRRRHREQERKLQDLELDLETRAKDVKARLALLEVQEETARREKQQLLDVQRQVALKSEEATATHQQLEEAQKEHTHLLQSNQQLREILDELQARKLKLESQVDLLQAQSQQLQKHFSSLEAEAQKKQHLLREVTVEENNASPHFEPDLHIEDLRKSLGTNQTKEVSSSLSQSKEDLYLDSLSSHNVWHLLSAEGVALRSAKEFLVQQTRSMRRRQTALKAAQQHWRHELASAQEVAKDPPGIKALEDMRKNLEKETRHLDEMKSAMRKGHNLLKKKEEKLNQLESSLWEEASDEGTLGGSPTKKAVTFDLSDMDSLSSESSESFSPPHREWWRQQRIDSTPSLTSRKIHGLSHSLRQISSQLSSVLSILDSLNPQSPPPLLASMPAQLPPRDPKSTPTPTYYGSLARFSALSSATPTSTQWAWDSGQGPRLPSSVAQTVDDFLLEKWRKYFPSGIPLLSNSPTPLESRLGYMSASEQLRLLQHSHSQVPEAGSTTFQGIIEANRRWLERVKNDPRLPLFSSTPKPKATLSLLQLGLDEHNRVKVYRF
UniProt Q9BU64: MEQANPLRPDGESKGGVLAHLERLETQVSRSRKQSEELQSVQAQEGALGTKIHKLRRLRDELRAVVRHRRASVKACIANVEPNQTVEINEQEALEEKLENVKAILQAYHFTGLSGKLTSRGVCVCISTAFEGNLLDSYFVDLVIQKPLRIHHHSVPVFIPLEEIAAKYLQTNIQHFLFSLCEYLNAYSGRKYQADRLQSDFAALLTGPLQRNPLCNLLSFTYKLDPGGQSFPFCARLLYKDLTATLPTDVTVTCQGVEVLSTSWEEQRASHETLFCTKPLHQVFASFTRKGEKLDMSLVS

Legend:
Test in all cases: log2 fold change, soluble protein after heating vs DMSO (PISA); higher = thermal stabilisation; K562 lysate, 10 uM; active = over 0.2 and 3.5 SD of the protein, either way, in both replicates (recomputed)
[1] = compound: CCn1c(C(=O)N(C2CC2)C2CC2)cc2c3c(ncn3C)c(Nc3cc(C)n(C)n3)nc21
Method in brief: (§1)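 Soluble protein was defined as the supernatant remaining after 21,000xg for 90 min, following pooling of heated aliquots and adjustment to 0.5% NP-40 at 4°C. Before that, crude K562 extract at 1 mg/mL protein in PBS pH 7.4 with 1 mM MgCl2 was treated with 10 μM compound for 30 min and heated for 3 min across 48°C-58°C. Quantification used TMTpro 16plex LC-MS/MS with channel sums equalised, and values are log-two fold changes in thermal stability relative to solvent controls from duplicates.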

sotrastaurin = compound: CN1CCN(c2nc(C3=C(c4c[nH]c5ccccc45)C(=O)NC3=O)c3ccccc3n2)CC1 [sotrastaurin]
Method in brief: as §1

Tubastatin A = compound: CN1CCc2c(c3ccccc3n2Cc2ccc(C(=O)NO)cc2)C1 [Tubastatin A]
Method in brief: as §1

barasertib = compound: CCN(CCCOc1ccc2c(Nc3cc(CC(=O)Nc4cccc(F)c4)[nH]n3)ncnc2c1)CCOP(=O)(O)O [barasertib]
Method in brief: as §1

[2] = compound: CC[C@@H]1C(=O)N(C)c2cnc(Nc3ccc(C(=O)NC4CCN(C)CC4)cc3OC)nc2N1C1CCCC1
Method in brief: as §1

[3] = compound: CCn1cc(-c2ccnc3[nH]c(-c4cccc(CN(C)C)c4)cc23)c(-c2ccc(NC(=O)N(C)C)cc2)n1
Method in brief: as §1

[4] = compound: CN1CCC(CNc2ccc3ncc(-c4cccc(OC(F)(F)F)c4)n3n2)CC1
Method in brief: as §1

saracatinib = compound: CN1CCN(CCOc2cc(OC3CCOCC3)c3c(Nc4c(Cl)ccc5c4OCO5)ncnc3c2)CC1 [saracatinib]
Method in brief: as §1

alvocidib = compound: CN1CC[C@H](c2c(O)cc(O)c3c(=O)cc(-c4ccccc4Cl)oc23)[C@H](O)C1 [alvocidib]
Method in brief: as §1

[5] = compound: CNC(=O)C1=CC=CC=C1NC2=NC(=NC=C2Cl)NC3=C(C=C(C=C3)N4CCOCC4)OC
Method in brief: as §1

[6] = compound: CNc1nc(-c2ccc3c(N)n[nH]c3c2)cc(N2C[C@@H](C(=O)NC3CCCCC3)CC[C@H]2C)n1
Method in brief: as §1

encorafenib = compound: COC(=O)N[C@@H](C)CNc1nccc(-c2cn(C(C)C)nc2-c2cc(Cl)cc(NS(C)(=O)=O)c2F)n1 [encorafenib]
Method in brief: as §1

[7] = compound: COC(=O)[C@H](CCSC)NC(=O)C1=C(C=C(C=C1)NC[C@H](CS)N)C2=CC=CC=C2
Method in brief: as §1

[8] = compound: CCCS(=O)(=O)Nc1ccc(F)c(C(=O)c2c[nH]c3ncc(Cl)cc23)c1F
Method in brief: as §1

volasertib = compound: CC[C@@H]1C(=O)N(C)c2cnc(Nc3ccc(C(=O)N[C@H]4CC[C@H](N5CCN(CC6CC6)CC5)CC4)cc3OC)nc2N1C(C)C [volasertib]
Method in brief: as §1

alisertib = compound: COc1cc(Nc2ncc3c(n2)-c2ccc(Cl)cc2C(c2c(F)cccc2OC)=NC3)ccc1C(=O)O [alisertib]
Method in brief: as §1

[9] = compound: COc1cc2nc(-c3cc(F)ccc3O)nc(N[C@@H]3CNC[C@H]3C(C)(C)O)c2cc1OC
Method in brief: as §1

gefitinib = compound: COc1cc2ncnc(Nc3ccc(F)c(Cl)c3)c2cc1OCCCN1CCOCC1 [gefitinib]
Method in brief: as §1

CDPF1 (UniProt Q6NVV7)
log2 fold change [1]: inactive: -0.029
log2 fold change (sotrastaurin): inactive: -0.028
log2 fold change (Tubastatin A): inactive: -0.18

CDT1 (UniProt Q9H211)
log2 fold change (barasertib): inactive: 0.019
log2 fold change [2]: inactive: 0.153
log2 fold change [1]: inactive: -0.059
log2 fold change [3]: inactive: -0.004
log2 fold change [4]: inactive: 0.034
log2 fold change (saracatinib): inactive: 0.034
log2 fold change (sotrastaurin): inactive: -0.042
log2 fold change (alvocidib): inactive: 0.016
log2 fold change (Tubastatin A): inactive: -0.072
log2 fold change [5]: inactive: 0.044
log2 fold change [6]: inactive: 0.028
log2 fold change (encorafenib): inactive: 0.112
log2 fold change [7]: inactive: -0.055

CDC25A (UniProt P30304)
log2 fold change [8]: inactive: 0.038
log2 fold change (volasertib): inactive: -0.053
log2 fold change [1]: inactive: 0.033
log2 fold change (saracatinib): inactive: -0.022
log2 fold change (sotrastaurin): inactive: 0.092
log2 fold change (Tubastatin A): active: -0.406
log2 fold change [5]: inactive: -0.121
log2 fold change [6]: inactive: 0.035
log2 fold change (alisertib): inactive: 0.005
log2 fold change [9]: inactive: 0.019
log2 fold change (gefitinib): inactive: -0.002

CDADC1 (UniProt Q9BWV3)
log2 fold change (sotrastaurin): inactive: 0.082

CENPX (UniProt A8MT69)
log2 fold change [1]: inactive: 0.417
log2 fold change (sotrastaurin): inactive: -0.001
log2 fold change (Tubastatin A): inactive: 0.09

CEP72 (UniProt Q9P209)
log2 fold change [1]: inactive: 0.049
log2 fold change (saracatinib): inactive: -0.097
log2 fold change (Tubastatin A): inactive: -0.017
log2 fold change [5]: inactive: -0.092
log2 fold change [6]: inactive: 0.086

CFL1 (UniProt E9PQB7)
log2 fold change (sotrastaurin): inactive: -0.013

CEP57L1 (UniProt Q8IYX8)
log2 fold change (barasertib): inactive: -0.06
log2 fold change [2]: inactive: 0.227
log2 fold change [1]: inactive: 0.044
log2 fold change [3]: inactive: -0.028
log2 fold change [4]: inactive: -0.066
log2 fold change (saracatinib): inactive: -0.065
log2 fold change (sotrastaurin): inactive: -0.007
log2 fold change (alvocidib): inactive: -0.024
log2 fold change (Tubastatin A): inactive: -0.143
log2 fold change [5]: inactive: 0.141
log2 fold change [6]: inactive: -0.09
log2 fold change (encorafenib): inactive: 0.118
log2 fold change [7]: inactive: -0.023
log2 fold change (alisertib): inactive: -0.003
log2 fold change (gefitinib): inactive: -0.038

CELSR2 (UniProt Q9HCU4)
log2 fold change [5]: inactive: -0.029

CDC27 (UniProt G5EA36)
log2 fold change [8]: inactive: -0.225
log2 fold change (barasertib): inactive: -0.073
log2 fold change (volasertib): inactive: 0.124
log2 fold change [1]: inactive: 0.037
log2 fold change [3]: inactive: 0.002
log2 fold change [4]: inactive: -0.109
log2 fold change (saracatinib): inactive: 0.004
log2 fold change (sotrastaurin): inactive: -0.027
log2 fold change (alvocidib): inactive: 0.013
log2 fold change (Tubastatin A): inactive: -0.018
log2 fold change [5]: inactive: 0.019
log2 fold change [6]: inactive: -0.089
log2 fold change (alisertib): inactive: -0.056
log2 fold change [9]: inactive: 0.064
log2 fold change (gefitinib): inactive: -0.168

CEP68 (UniProt Q76N32)
log2 fold change [2]: inactive: -0.034
log2 fold change (saracatinib): inactive: 0.026
log2 fold change [5]: inactive: -0.024
log2 fold change [6]: inactive: 0.032
log2 fold change (encorafenib): inactive: 0.052
log2 fold change [7]: inactive: -0.01

CENPB (UniProt P07199)
log2 fold change [2]: inactive: -0.043
log2 fold change (encorafenib): inactive: -0.094
log2 fold change [7]: inactive: 0.01

CEBPG (UniProt P53567)
log2 fold change [8]: inactive: 0.149
log2 fold change (barasertib): inactive: -0.065
log2 fold change (volasertib): inactive: -0.04
log2 fold change [1]: inactive: -0.077
log2 fold change [3]: inactive: -0.162
log2 fold change [4]: inactive: 0.021
log2 fold change (sotrastaurin): inactive: -0.05
log2 fold change (alvocidib): inactive: 0.117
log2 fold change (Tubastatin A): inactive: -0.049
log2 fold change [9]: inactive: 0.033

CDC42BPG (UniProt Q6DT37)
log2 fold change [8]: inactive: 0.044
log2 fold change (volasertib): inactive: 0.145
log2 fold change [1]: inactive: 0.057
log2 fold change (saracatinib): inactive: 0.011
log2 fold change (sotrastaurin): inactive: 0.323
log2 fold change (Tubastatin A): inactive: -0.032
log2 fold change [6]: inactive: 0.019
log2 fold change (alisertib): inactive: 0
log2 fold change [9]: inactive: 0.093
log2 fold change (gefitinib): inactive: -0.112

CDKN3 (UniProt Q16667)
log2 fold change (barasertib): inactive: 0.119
log2 fold change [2]: inactive: -0.053
log2 fold change [3]: inactive: -0.05
log2 fold change [4]: inactive: 0.038
log2 fold change (alvocidib): inactive: 0.001
log2 fold change (encorafenib): inactive: -0.084
log2 fold change [7]: inactive: 0.044

CDC14A isoform 2 (UniProt Q9UNH5)
log2 fold change [8]: inactive: -0.271
log2 fold change (volasertib): inactive: 0.085
log2 fold change [1]: inactive: 0.101
log2 fold change (sotrastaurin): inactive: 0.058
log2 fold change (Tubastatin A): inactive: 0.272
log2 fold change (alisertib): inactive: 0.075
log2 fold change [9]: inactive: 0.019
log2 fold change (gefitinib): inactive: 0.078

CDC42SE1 (UniProt Q9NRR8)
log2 fold change [8]: inactive: 0
log2 fold change (barasertib): inactive: -0.418
log2 fold change (volasertib): inactive: 0.178
log2 fold change [3]: inactive: -0.283
log2 fold change [4]: inactive: -0.14
log2 fold change (sotrastaurin): inactive: -0.076
log2 fold change (alvocidib): inactive: 0.156
log2 fold change (alisertib): inactive: -0.088
log2 fold change [9]: inactive: -0.437
log2 fold change (gefitinib): inactive: -0.116

CENPM (UniProt Q9NSP4)
log2 fold change (barasertib): inactive: -0.04
log2 fold change [2]: inactive: 0.116
log2 fold change [1]: inactive: 0.046
log2 fold change [3]: inactive: 0.052
log2 fold change [4]: inactive: 0.037
log2 fold change (saracatinib): inactive: -0.063
log2 fold change (sotrastaurin): inactive: -0.225
log2 fold change (alvocidib): inactive: -0.1
log2 fold change (Tubastatin A): inactive: 0.029
log2 fold change [5]: inactive: 0.04
log2 fold change [6]: inactive: 0.199
log2 fold change (encorafenib): inactive: -0.128
log2 fold change [7]: inactive: 0.105
log2 fold change (alisertib): inactive: -0.133
log2 fold change (gefitinib): inactive: -0.057

CEP63 (UniProt Q96MT8)
log2 fold change [8]: inactive: 0.003
log2 fold change [2]: inactive: -0.051
log2 fold change (volasertib): inactive: 0.031
log2 fold change [3]: inactive: -0.416
log2 fold change [4]: inactive: 0.091
log2 fold change (saracatinib): inactive: 0.025
log2 fold change (alvocidib): inactive: -0.091
log2 fold change [5]: inactive: -0.129
log2 fold change [6]: inactive: -0.093
log2 fold change (encorafenib): inactive: 0.069
log2 fold change [7]: inactive: 0.048
log2 fold change (alisertib): inactive: 0.089
log2 fold change [9]: inactive: -0.021
log2 fold change (gefitinib): inactive: -0.052

CENPT (UniProt Q96BT3)
log2 fold change [5]: inactive: 0.21

CEP78 isoform 2 (UniProt Q5JTW2)
log2 fold change (saracatinib): inactive: 0.05
log2 fold change (sotrastaurin): inactive: 0.062
log2 fold change [5]: inactive: -0.001
log2 fold change [6]: inactive: 0.303

CEP164 (UniProt Q9UPV0)
log2 fold change [8]: inactive: 0.052
log2 fold change (barasertib): inactive: 0.102
log2 fold change (volasertib): inactive: -0.002
log2 fold change [5]: inactive: 0.138
log2 fold change [9]: inactive: 0.067

CEP162 (UniProt Q5TB80)
log2 fold change (sotrastaurin): inactive: -0.002

CDC42, A0A494C1M1
log2 fold change [8]: inactive: 0.054
log2 fold change (volasertib): inactive: -0.034
log2 fold change [3]: inactive: 0.178
log2 fold change [4]: inactive: 0.017
log2 fold change (alvocidib): inactive: -0.052
log2 fold change (alisertib): inactive: -0.108
log2 fold change [9]: inactive: 0
log2 fold change (gefitinib): inactive: 0.043

CEP104 (UniProt O60308)
log2 fold change [1]: inactive: 0.081
log2 fold change (Tubastatin A): inactive: -0.026

CENPO (UniProt Q9BU64)
log2 fold change [3]: inactive: -0.122
log2 fold change [4]: inactive: 0.084
log2 fold change (alvocidib): inactive: -0.014
log2 fold change [5]: inactive: 0.112
log2 fold change (alisertib): inactive: -0.066
log2 fold change (gefitinib): inactive: 0.161
